Results: PMC7862700
Only a part is listed here, and it is no random draw. At the low end of the ranking, values are background and their order means little.

Target: T1, SPIC (UniProt Q8N5J4)
T1 sequence: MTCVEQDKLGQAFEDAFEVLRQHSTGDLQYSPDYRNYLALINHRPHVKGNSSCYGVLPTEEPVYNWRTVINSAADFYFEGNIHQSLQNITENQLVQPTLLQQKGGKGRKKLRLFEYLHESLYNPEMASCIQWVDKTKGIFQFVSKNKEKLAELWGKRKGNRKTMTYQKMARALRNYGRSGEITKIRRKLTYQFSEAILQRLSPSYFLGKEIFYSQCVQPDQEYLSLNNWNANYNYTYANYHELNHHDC
Test: DAPPL (digital affinity profiling via proximity ligation, sequencing)
Settings: 10 mM Tris-HCl pH 7.5, 50 mM NaCl, 1 mM DTT, 4% glycerol, room temperature, 30 min; GST-TFs on glutathione beads, 16-mer random dsDNA library, 0.1% …; high values mean tight binding; double strand, one strand shown; scale: fold enrichment (6-mer frequency, TF over GST control)

Row | Sequence | binding signal
1 | CGTGAG | 0.101
2 | CCGTGT | 0.435
3 | GGCAGA | 0.752
4 | GTGGCG | 0.692
5 | CCGAGA | 0.539
6 | GAAGGA | 0.748
7 | TGGGCC | 0.951
8 | GGACCG | 0.701
9 | AGGTGG | 0.664
10 | GGCCGG | 0.533
11 | GCAGTG | 0.566
12 | ACAGGT | 0.796
13 | GATCAG | 0.737
14 | GCTGGG | 0.685
15 | GCGCAA | 0.847
16 | CGGTGG | 0.549
17 | GCATAG | 0.814
18 | TACGTG | 0.673
19 | AGAGGA | 0.748
20 | TCGGCG | 0.635

Target: T2, ETS2 (UniProt P15036)
T2 sequence: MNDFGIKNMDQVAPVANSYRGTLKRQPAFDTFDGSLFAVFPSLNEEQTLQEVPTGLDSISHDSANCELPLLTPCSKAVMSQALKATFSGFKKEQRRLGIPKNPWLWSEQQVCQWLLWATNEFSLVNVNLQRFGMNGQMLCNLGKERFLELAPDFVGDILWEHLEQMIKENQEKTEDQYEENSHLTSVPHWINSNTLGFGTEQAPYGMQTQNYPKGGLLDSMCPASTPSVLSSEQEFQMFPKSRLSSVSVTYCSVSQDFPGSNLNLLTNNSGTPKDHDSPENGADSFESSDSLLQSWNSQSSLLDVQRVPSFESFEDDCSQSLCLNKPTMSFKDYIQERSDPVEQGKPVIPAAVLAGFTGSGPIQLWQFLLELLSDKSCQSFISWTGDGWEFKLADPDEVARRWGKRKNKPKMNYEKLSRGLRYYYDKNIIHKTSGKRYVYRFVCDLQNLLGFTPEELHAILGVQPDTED
Test: as above
Settings: 10 mM Tris-HCl pH 7.5, 50 mM NaCl, 1 mM DTT, 4% glycerol, room temperature, 30 min; GST-TFs on glutathione beads, 16-mer random dsDNA library, 0.1% …; high values mean tight binding; double strand, one strand shown; scale: fold enrichment (6-mer frequency, TF over GST control)

Row | Sequence | binding signal
21 | TGAGAC | 0.58
22 | GACATA | 0.898
23 | GGAGCT | 0.547
24 | GGCTGA | 0.858
25 | GAACGG | 0.643
26 | CAGGGA | 0.542
27 | GTGTCG | 0.625
28 | TACAGT | 0.878
29 | GAAGGC | 0.888
30 | ATGAGT | 0.703
31 | GGACGT | 0.61
32 | GAGACT | 0.417
33 | CGGAGA | 0.211
34 | GCGTAA | 0.851
35 | TGAGAG | 0.564
36 | GGAGTG | 0.392
37 | CAGCTG | 0.905
38 | GTGTCA | 0.824
39 | GTAGCC | 0.912
40 | CGTGAG | 0.128

Row | Sequence | binding signal
41 | CCGTGT | 0.514
42 | GGCAGA | 0.651
43 | GTGGCG | 0.808
44 | CCGAGA | 0.578
45 | GAAGGA | 0.736
46 | TGGGCC | 0.969
47 | GGACCG | 0.766
48 | AGGTGG | 0.609
49 | GGCCGG | 0.616
50 | GCAGTG | 0.536
51 | ACAGGT | 0.696
52 | GATCAG | 0.803
53 | GCTGGG | 0.879
54 | GCGCAA | 0.815
55 | CGGTGG | 0.651
56 | GCATAG | 0.877
57 | TACGTG | 0.763
58 | AGAGGA | 0.669
59 | TCGGCG | 0.469

Target: T3, ETV3 (UniProt P41162-2)
T3 sequence: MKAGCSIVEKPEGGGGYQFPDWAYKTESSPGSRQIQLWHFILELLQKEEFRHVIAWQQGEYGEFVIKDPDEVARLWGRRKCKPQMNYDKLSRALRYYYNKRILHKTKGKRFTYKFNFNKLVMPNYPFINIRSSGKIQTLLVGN
Test: as above
Settings: 10 mM Tris-HCl pH 7.5, 50 mM NaCl, 1 mM DTT, 4% glycerol, room temperature, 30 min; GST-TFs on glutathione beads, 16-mer random dsDNA library, 0.1% …; high values mean tight binding; double strand, one strand shown; scale: fold enrichment (6-mer frequency, TF over GST control)

Row | Sequence | binding signal
60 | TGAGAC | 0.528
61 | GACATA | 0.862
62 | GGAGCT | 0.598
63 | GGCTGA | 0.692
64 | GAACGG | 0.653
65 | CAGGGA | 0.486
66 | GTGTCG | 0.634
67 | TACAGT | 0.86
68 | GAAGGC | 0.95
69 | ATGAGT | 0.673
70 | GGACGT | 0.615
71 | GAGACT | 0.431
72 | CGGAGA | 0.209
73 | GCGTAA | 0.845
74 | TGAGAG | 0.607
75 | GGAGTG | 0.435
76 | CAGCTG | 0.87
77 | GTGTCA | 0.822
78 | GTAGCC | 0.948
79 | CGTGAG | 0.125

Row | Sequence | binding signal
80 | CCGTGT | 0.551
81 | GGCAGA | 0.662
82 | GTGGCG | 0.798
83 | CCGAGA | 0.642
84 | GAAGGA | 0.725
85 | TGGGCC | 0.87
86 | GGACCG | 0.816
87 | AGGTGG | 0.54
88 | GGCCGG | 0.574
89 | GCAGTG | 0.551
90 | ACAGGT | 0.793
91 | GATCAG | 0.787
92 | GCTGGG | 0.792
93 | GCGCAA | 0.856
94 | CGGTGG | 0.657
95 | GCATAG | 0.845
96 | TACGTG | 0.667
97 | AGAGGA | 0.674
98 | TCGGCG | 0.531
